Drawing on PMC11962092, this text covers binding for 3 molecules.

Amino acid sequences for entries named in this document (tags omitted). Residues count along the entry.
UniProt Q9JJR8, residues 35-199: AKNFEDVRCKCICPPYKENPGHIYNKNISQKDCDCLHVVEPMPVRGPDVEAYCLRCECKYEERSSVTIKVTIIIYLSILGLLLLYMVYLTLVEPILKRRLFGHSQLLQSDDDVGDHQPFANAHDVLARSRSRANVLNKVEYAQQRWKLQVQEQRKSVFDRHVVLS

These are yes or no findings as the source states them, for the method shown. Binding seen in cells or lysates may run through a third protein. These calls come from enrichment with a bait or labelling near it, and not all partners need be listed.

Test [1] concerns the target TMEM9B (mouse (endogenous in mouse brain)) (UniProt Q9JJR8). As to the kind of experiment: affinity purification with mass spectrometry; multi-epitope affinity purification (meAP-MS) from mouse brain membranes solubilized in ComplexioLyte 47; several antibodies against TMEM9 or TMEM9B on Protein A / Protein G magnetic beads, 3 h; IgG and target knockout controls.
Test [2] deals with T1, TMEM9 (mouse (endogenous in mouse brain)) (UniProt Q9CR23).
T1 sequence: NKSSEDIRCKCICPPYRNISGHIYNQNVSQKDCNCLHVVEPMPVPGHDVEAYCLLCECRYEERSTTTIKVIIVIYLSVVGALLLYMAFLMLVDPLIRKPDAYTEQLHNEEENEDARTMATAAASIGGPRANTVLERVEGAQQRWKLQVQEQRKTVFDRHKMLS
The test is described as above.

B1: ClC-3 (protein, UniProt P51791 1-818)
chain: MESEQLFHRGYYRNSYNSITSASSDEELLDGAGAIMDFQTSEDDNLLDGDTAAGTHYTMTNGGSINSSTHLLDLLDEPIPGVGTYDDFHTIDWVREKCKDRERHRRINSKKKESAWEMTKSLYDAWSGWLVVTLTGLASGALAGLIDIAADWMTDLKEGICLSALWYNHEQCCWGSNETTFEERDKCPQWKTWAELIIGQAEGPGSYIMNYIMYIFWALSFAFLAVSLVKVFAPYACGSGIPEIKTILSGFIIRGYLGKWTLMIKTITLVLAVASGLSLGKEGPLVHVACCCGNIFSYLFPKYSTNEAKKREVLSAASAAGVSVAFGAPIGGVLFSLEEVSYYFPLKTLWRSFFAALVAAFVLRSINPFGNSRLVLFYVEYHTPWYLFELFPFILLGVFGGLWGAFFIRANIAWCRRRKSTKFGKYPVLEVIIVAAITAVIAFPNPYTRLNTSELIKELFTDCGPLESSSLCDYRNDMNASKIVDDIPDRPAGVGVYSAIWQLCLALIFKIIMTVFTFGIKVPSGLFIPSMAIGAIAGRIVGIAVEQLAYYHHDWFIFKEWCEVGADCITPGLYAMVGAAACLGGVTRMTVSLVVIVFELTGGLEYIVPLMAAVMTSKWVGDAFGREGIYEAHIRLNGYPFLDAKEEFTHTTLAADVMRPRRSDPPLAVLTQDNMTVDDIENMINETSYNGFPVIMSKESQRLVGFALRRDLTIAIESARKKQEGIVGSSRVCFAQHTPSLPAESPRPLKLRSILDMSPFTVTDHTPMEIVVDIFRKLGLRQCLVTHNGIVLGIITKKDILRHMAQTANQDPASIMFN
Turning to B1, the binding result in test [1] was “binds”.

B2: ClC-5 (protein, UniProt Q9WVD4 1-816)
chain: MAMWQGAMDNRGFHQGSFSSFQSSSSDEDLMDIPGTAMDFSMRDDVPPLDREIEGNKSYNGGGIGSSNRVMDFLEEPIPGVGTYDDFNTIDWVREKSRDRDRHREITNKSKESTWALIHSVSDAFSGWLLMLLIGLLSGSLAGLIDISAHWMTDLKEGICTGGFWFNHEHCCWNSEHVTFEHRDKCPEWNSWAQLIINTDQGAFAYIVNYFMYVLWALLFAFLAVSLVKAFAPYACGSGIPEIKTILSGFIIRGYLGKWTLVIKTITLVLAVSSGLSLGKEGPLVHVACCCGNILCHCFNKYRKNEAKRREVLSAAAAAGVSVAFGAPIGGVLFSLEEVSYYFPLKTLWRSFFAALVAAFTLRSINPFGNSRLVLFYVEFHTPWHLFELVPFIVLGIFGGLWGALFIRTNIAWCRKRKTTQLGKYPVVEVLIVTAITAILAFPNEYTRMSTSELISELFNDCGLLDSSKLCDYENHFNTSKGGELPDRPAGVGIYSAMWQLALTLILKIVITIFTFGMKIPSGLFIPSMAVGAIAGRLLGVGMEQLAYYHHDWGIFNSWCSQGADCITPGLYAMVGAAACLGGVTRMTVSLVVIMFELTGGLEYIVPLMAAAMTSKWVADALGREGIYDAHIRLNGYPFLEAKEEFAHKTLAMDVMKPRRNDPLLTVLTQDSMTVEDVETIISETTYSGFPVVVSRESQRLVGFVLRRDLIISIENARKKQDGVVSTSIIYFTEHSPPMPPYTPPTLKLRNILDLSPFTVTDLTPMEIVVDIFRKLGLRQCLVTHNGRLLGIITKKDVLKHIAQMANQDPDSILFN
Consider B2, for which the binding entry in test [2] and in test [1] was “binds” each time.

B3: ClC-4 (protein, UniProt Q61418 1-747)
chain: MDFLEEPFPDVGTYEDFHTIDWLREKSRDTDRHRKITSKSKESIWEFIKSLLDAWSGWVVMLLIGLLAGTLAGVIDLAVDWMTDLKEGVCLSAFWYSHEQCCWTSNETTFEDRDKCPLWQKWSELLLSQSEGASAYILNYLMYILWALLFAFLAVSLVRVFAPYACGSGIPEIKTILSGFIIRGYLGKWTLLIKTVTLVLVVSSGLSLGKEGPLVHVACCCGNFFSSLFSKYSKNEGKRREVLSAAAAAGVSVAFGAPIGGVLFSLEEVSYYFPLKTLWRSFFAALVAAFTLRSINPFGNSRLVLFYVEYHTPWYMAELFPFILLGVFGGLWGTLFTRCNIAWCRRRKTTRLGRYPVLEVIAVTAVTAIVAYPNPYTRQSTSELISELFNDCGALESSQLCDYINDPNMTRPVDDIPDRPAGVGVYTAMWQLALALIFKIVITIFTFGMKIPSGLFIPSMAVGAMAGRMVGIGVEQLAYHHHDWIIFRNWCRPGADCVTPGLYAMVGAAACLGGVTRMTVSLVVIMFELTGGLEYIVPLMAAAVTSKWVADAFGKEGIYEAHIHLNGYPFLDVKDEFTHRTLATDVMRPRRGEPPLSVLTQDSMTVEDVETLIKETDYNGFPVLVSRDSERLIGFAQRRELILAIKNARQRQEGIVSNSIMYFTEEPPELPANSPHPLKLRRILNLSPFTVTDHTPMETVVDIFRKLGLRQCLVTRSGRLLGIITKKDVLRHMAQMANQDPESIMFN
On to B3, for which the binding result in test [2] and in test [1] was “binds” each time.
